Some of the results follow.
These compounds were tested on T1, CTL2-GFP (C. trachomatis L2/434/Bu, GFP-expressing). Conditions: bulk GFP, single well; 28.5 h, 10 µM; inhibitor.
T1 construct: L2/434/Bu, GFP-expressing
Set-up: species or system HeLa; Intracellular C. trachomatis growth in HeLa cells, bulk GFP fluorescence relative to DMSO

Row | Structure (SMILES) | % of control remaining [%]
1 | COc1cccc(CN2CCN(C(=O)Cc3cccs3)[C@@H](C)C2)c1 [CBK285487] | 114.814
2 | Cc1nn2c(N)ncnc2c1-c1ccc(Cl)cc1 [CBK287880] | 109.236
3 | NC(=S)Nc1nc(-c2ccc(Br)cc2)cs1 [CBK023259] | 162.903
4 | O=C(CN1CCN(Cc2ccc3c(c2)OCO3)CC1)Nc1ccc(Oc2ccccc2)cc1 [CBK265864] | 105.135
5 | Cc1cc(NC(=O)Cc2cn3ccsc3n2)ccc1N1CCCC1 [CBK306080] | 142.18
6 | O=C(CCn1c(=O)oc2ccccc21)Nc1ccc2c(c1)CN(Cc1ccccc1)C2 [CBK285946] | 119.057
7 | COc1cccc(OC)c1OCCCN1CCCCC1 [CBK262719] | 114.259
8 | CN(C)c1ccc(Nc2cc(Cl)nc3ccnn23)cc1 [CBK037203] | 161.369
9 | COc1ccc(CN2CCN(Cc3ccco3)CC2)cc1OCc1ccccc1 [CBK264225] | 106.873
10 | O=C(O)CCCC(=O)NCCc1ccc(Cl)cc1Cl [CBK296930] | 167.679
11 | Nc1cc2ccccc2nc1C1CCN(C(=O)C2CC=CCC2)CC1 (stereo not drawn) [CBK285016] | 134.596
12 | CCc1ccc(S(=O)(=O)N2CCN(C(c3ccccc3)c3ccccc3)CC2)cc1 [CBK093948] | 112.667
13 | O=C(O)CCSc1nc2ccccc2n1CCOc1ccccc1 [CBK262555] | 113.549
14 | O=C(CN1CCC(c2ccccc2F)CC1)NC1CCCC1 [CBK283551] | 122.105
15 | Cc1nnc(SCC(=O)N/N=C/c2ccncc2)n1-c1ccccc1 [CBK262762] | 126.358
16 | COc1ccc2c(c1)c(=O)oc1cc(OCC(=O)N3CCc4ccccc4C3)ccc12 [CBK266346] | 164.189
17 | CCC1(C)CC(=O)c2cc(NC(=O)N3CCc4n[nH]cc4C3)ccc2O1 (stereo not drawn) [CBK306846] | 174.04
18 | C#CCOc1cn([C@H]2C[C@@H](O)[C@@H](CO)O2)c(=O)[nH]c1=O [CBK201278] | 116.302
19 | O=C(O)c1cccc(Sc2nccc(C(F)(F)F)n2)c1 [CBK115957] | 116.878
20 | COC(=O)CN1N=C(C(C)(C)C)Cn2c(cc3ccccc32)C1=O [CBK284204] | 87.65
21 | Cc1ccc(CN2CC(C(=O)N3CCC(C(=O)O)CC3)CC2=O)cc1 (stereo not drawn) [CBK300205] | 136.158
22 | Cc1ccccc1OC(C)C(=O)Nc1ccc(S(=O)(=O)N2CCCC2)cc1 (stereo not drawn) [CBK269367] | 147.327
23 | CCCc1nc2oc3c(-c4ccccc4)c(C(=O)O)c(C)nc3c2c2c1COC(C)(C)C2 [CBK264044] | 125.036
24 | Cc1nn(Cc2cccc(C(N)=O)c2)c(C)c1Br [CBK022255] | 126.39
25 | Cc1ccc2nc3c(cc2c1)CNCC(C)O3 (stereo not drawn) [CBK281941] | 149.597
26 | Cc1nn(C)c(C)c1S(=O)(=O)n1ccn(-c2cccc(C(F)(F)F)c2)c1=O [CBK106593] | 157.399

Row | Structure (SMILES) | % of control remaining [%]
27 | Cc1ccc(Cl)cc1N1CCN(C(=O)C2C3C=CC(C3)C2C(=O)O)CC1 (stereo not drawn) [CBK287025] | 128.669
28 | CCOC(=O)CC(=O)COc1nc2cc3c(nc2o1)CCCC3 [CBK269204] | 145.479
29 | Cc1csc(C(Cc2ccsc2)NC(=O)c2c(C)noc2C)n1 (stereo not drawn) [CBK285045] | 130.236
30 | CC1=NN(c2ccccc2)C(=O)/C1=C/Nc1ccc(S(=O)(=O)Nc2nc(C)cc(C)n2)cc1 [CBK262368] | 14.631
31 | Cc1cccn2c(=O)cc(CN3CCn4c(nnc4C4CC4)C3)nc12 [CBK305232] | 89.154
32 | COc1ccccc1CN1CCC2(CCCNC2=O)CC1 [CBK284823] | 143.302
33 | CCc1nc2ccc(C(=O)Nc3ccc(NC(C)=O)cc3)cn2c1N(C)CC [CBK145483] | 87.1352
34 | Cc1ccc(S(=O)(=O)N(CC(=O)Nc2ccccc2F)c2cc(Cl)ccc2Cl)cc1 [CBK268647] | 93.5
35 | Ic1ccc2c3ccc(I)cc3c3[nH]c(-c4ccccc4)nc3c2c1 [CBK261218] | 100
36 | CCN1CCCC(CNS(=O)(=O)c2cc(-n3cccn3)ccc2OC)C1 (stereo not drawn) [CBK306997] | 148.472
37 | COc1cccc(NC(=O)c2cnc(-c3ccccc3)c(-c3cccnc3)c2)c1OC [CBK037487] | 106.184
38 | O=C(NCc1ccco1)C1CCN(c2nccc(C(F)(F)F)n2)CC1 [CBK028778] | 126.333
39 | O=c1n(CC2CCCCC2)c2ccccc2n1S(=O)(=O)c1ccc2ccccc2c1 [CBK106527] | 101.502
40 | Cc1oc(-c2ccccc2)cc1C(=O)Nc1c(F)cc(F)cc1OC1CCNCC1 [CBK050326T] | 107.164
41 | Cc1ccc(C(=O)N2CCN(C)CC2)c(N2CCOCC2)n1 [CBK106199] | 118.173
42 | CCCCc1noc(CN2CCCC2C(=O)NCc2ccco2)n1 (stereo not drawn) [CBK304036] | 125.338
43 | Cc1cccc(C)c1NC(=O)CN(c1ccc(F)cc1)S(=O)(=O)c1ccc2c(c1)OCCO2 [CBK264878] | 109.965
44 | Nc1ncc(-c2cccc3ccccc23)nc1N1CCC[C@@H]1CO [CBK063517] | 76.8226
45 | Clc1ccccc1CN(CCCn1ccnc1)Cc1c[nH]cn1 [CBK282988] | 80.0265
46 | COc1ccc2[nH]cc(C(C(=O)O)N3CCN(Cc4ccccn4)CC3)c2c1 (stereo not drawn) [CBK286846] | 124.02
47 | O=C(NC1(c2cccc(F)c2)CCCC1)c1cnccn1 [CBK283619] | 123.317
48 | COc1ncc(-c2nccnc2N2CCN(C)CC2)c(OC)n1 [CBK036595] | 190.681
49 | CCN1CCN(C(=O)c2cccc3[nH]ccc23)CC1 [CBK200246] | 100.507
50 | C[C@H]1[C@@H]2[C@@H](O)C([C@H](C)C(=O)NC3CC3)CC[C@@]2(C)CC[C@@H]1NC(=O)c1cncnc1 (stereo partly drawn) [CBK289453] | 178.823
51 | Cc1ccc(-c2ccn(C(C)C(=O)N(C)C)n2)cc1 (stereo not drawn) [CBK016069] | 152.59
52 | Cc1csc2c(C3CCN(C(=O)c4cnn(C)c4)CC3)nc(C)n12 [CBK285250] | 134.024

Row | Structure (SMILES) | % of control remaining [%]
53 | COc1cc2oc(=O)c(CC(=O)N[C@@H](CC(C)C)C(=O)O)c(C)c2cc1Cl [CBK286772] | 89.8752
54 | CC1(C)CC(=O)C=C(NCC2CCNCC2)C1 [CBK027580] | 100
55 | COc1ccc(C2(O)CCN(CC(O)c3ccc(C(C)(C)C)cc3)CC2)cc1 (stereo not drawn) [CBK286333] | 127.65
56 | CCOC(=O)c1[nH]c2ccccc2c1NC(=O)c1cc(F)cc(Cl)c1 [CBK160143] | 103.538
57 | Cc1cc2nc(NS(C)(=O)=O)n(S(C)(=O)=O)c2cc1C [CBK023112] | 91.1251
58 | COc1ccc(C(=O)C2CCN(Cc3cccc4cccnc34)CC2)cc1 [CBK295192] | 116.359
59 | CC(C)c1nc(CC(=O)NCCC(=O)N2CCCc3ccccc32)cs1 [CBK305437] | 77.8384
60 | C(=N\Nc1nc2ccccc2[nH]1)/c1cccnc1 [CBK026357] | 89.3129
61 | CN1CN=C2SC3(COC(c4cccc(Br)c4)OC3)C(=O)N2C1 (stereo not drawn) [CBK263700] | 133.226
62 | Cc1ccc(OCCSc2nnc(N)[nH]2)cc1 [CBK269334] | 166.128
63 | CCCn1cnnc1C(C)NS(=O)(=O)c1cccc(C(=O)N2CCC2)c1 (stereo not drawn) [CBK306569] | 134.368
64 | c1cnc(N2CCN(Cc3ccc4c(c3)OCO4)CC2)c(OCCN2CCOCC2)n1 [CBK082894T] | 106.02
65 | CC(C)(C)C1=CC2=NC3(CCCCCCC3)[C@@H]3C[C@@H](O)[C@@H](O)[C@@H]3N2O1 [CBK303256] | 102.799
66 | Cc1ccc(OCCOCCN(C)C)c(Cl)c1 [CBK265493G] | 111.726
67 | CC(C)(C)c1csc(NC(=O)C2CC(=O)N(c3cccc(C(F)(F)F)c3)C2)n1 (stereo not drawn) [CBK175545] | 94.7677
68 | Cc1ccccc1CN1CC[C@H]2[C@@H](C1)[C@H](c1ccsc1)CN2C(=O)c1ccc(F)cc1 [CBK285638] | 132.119
69 | Cc1ccc(C(=O)N2CCC[C@@H]3NC(=O)c4ccccc4OCC/C=C/C[C@@H]32)c(O)n1 [CBK292080] | 125.87
70 | COCCN1CCC2(C/C=C/C[C@H]3COCC[C@H]3NC(=O)CNC2=O)CC1 [CBK292145] | 87.3023
71 | CS(=O)(=O)N(CC(=O)NCc1ccccn1)c1ccc(C23CC4CC(CC(C4)C2)C3)cc1 [CBK268448] | 114.21
72 | CCNC(=O)C1(NC(=O)c2cn3ccccc3n2)CCCCC1 [CBK305240] | 90.4558
73 | CN1C(=O)c2ccccc2C(=O)[C@@]2(C)CN(Cc3ccccc3)C[C@@H]12 [CBK284692] | 123.688
74 | COc1ccc(OCCCN2C(=O)C3(CC(=O)N(Cc4ccccc4)C3=O)c3cc(OC)ccc32)cc1 (stereo not drawn) [CBK075523] | 110.687
75 | CCOc1cc(/C=N/NC(=O)CSc2nc(C)cc(C)n2)ccc1O [CBK262405] | 116.815
76 | CC(C)NC(=O)N1CC[C@H](c2nc3ncccc3[nH]2)C1 [CBK289369] | 129.151
77 | CC(C)(C)OC(=O)N1CCC(N(CCCO)Cc2ccccn2)CC1 [CBK304246] | 102.338
78 | CN(CC(N)=O)C(=O)CCn1c(=O)oc2cc(Cl)ccc21 [CBK305757] | 165.881

Six compounds already listed, ordered by heavy-atom count, rising.
Row | Structure (SMILES) | % of control remaining [%]
62 | Cc1ccc(OCCSc2nnc(N)[nH]2)cc1 [CBK269334] | 166.128
72 | CCNC(=O)C1(NC(=O)c2cn3ccccc3n2)CCCCC1 [CBK305240] | 90.4558
77 | CC(C)(C)OC(=O)N1CCC(N(CCCO)Cc2ccccn2)CC1 [CBK304246] | 102.338
63 | CCCn1cnnc1C(C)NS(=O)(=O)c1cccc(C(=O)N2CCC2)c1 (stereo not drawn) [CBK306569] | 134.368
70 | COCCN1CCC2(C/C=C/C[C@H]3COCC[C@H]3NC(=O)CNC2=O)CC1 [CBK292145] | 87.3023
64 | c1cnc(N2CCN(Cc3ccc4c(c3)OCO4)CC2)c(OCCN2CCOCC2)n1 [CBK082894T] | 106.02

Source: PMC12040169 (PLOS Biology, 2025)
